This is an account of results in publication PMC9299520 (Nature structural & molecular biology, 2022).

Sequences of proteins named here, by UniProt entry; tags and fusion partners are left off.
UniProt P47898, whole entry: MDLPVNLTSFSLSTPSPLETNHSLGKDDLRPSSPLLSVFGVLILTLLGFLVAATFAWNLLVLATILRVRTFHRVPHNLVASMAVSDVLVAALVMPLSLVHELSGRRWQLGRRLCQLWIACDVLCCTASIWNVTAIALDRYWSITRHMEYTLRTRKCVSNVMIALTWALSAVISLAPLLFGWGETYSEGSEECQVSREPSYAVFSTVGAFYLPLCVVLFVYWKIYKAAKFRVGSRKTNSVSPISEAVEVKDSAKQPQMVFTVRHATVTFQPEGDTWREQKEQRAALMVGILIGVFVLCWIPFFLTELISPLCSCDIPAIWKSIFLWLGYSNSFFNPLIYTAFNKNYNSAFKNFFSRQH

For the test, the target named is 5-HT5AR (Homo sapiens, UniProt P47898). As to the kind of experiment: BRET2 Gi1-activation assay, WT 5-HT5AR. The test is classed as cell-based. The note with it: normalized to % of 5-HT. For orientation: BRET reads energy transfer from a luciferase to a nearby fluorophore.

Regarding `CCN(CC)C(=O)N[C@H]1C=C2c3cccc4[nH]cc(c34)C[C@H]2N(C)C1` [lisuride], the “agonist type for Gi signaling” value is “partial agonist”.
